Values from PubChem BioAssay AID493246 (Drosophila RNAi Screening Center, 2011).
The screen tested about 21,000 reagents; below is an unselected part of those with a known target gene and a result. Over the whole deposit, 429 (2%) got an active call. 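Values are raw and not normalised between plates; calls rest on per-plate z-scores that were not deposited.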 Names joined by + are all predicted targets of the reagent. The record does not give: the amount of reagent, the time to read-out.

Test: 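Genome-wide search for dsRNAs that reduce cell number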 (primary screen)
Cells: Drosophila Kc and S2R+ cells
Reagent: long dsRNA against Drosophila genes
Measured: 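Raw, unnormalised count of remaining cells in each well; per-plate z-scores of cell number underlie the calls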
Reading the numbers: Kc cell number and S2R+ cell number: higher = more cells remaining
Hit rule: 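Active when the per-plate z-score of cell number is 3 or more in the direction of fewer cells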

With knock-down of CngB (Cyclic nucleotide-gated ion channel subunit B) [DRSC04297] the results were Kc cell number, rep 1 = 1.12e6; Kc cell number, rep 2 = 1.19e6; S2R+ cell number, rep 1 = 8.35e5; S2R+ cell number, rep 2 = 7.03e5; inactive.
Cyp4g15 (Cytochrome P450 4g15) [DRSC20240] gave Kc cell number, rep 1 = 1.54e6; Kc cell number, rep 2 = 1.55e6; S2R+ cell number, rep 1 = 1.00e6; S2R+ cell number, rep 2 = 1.11e6; inactive.
Depletion of Gabat (gamma-aminobutyric acid transaminase) [DRSC10846] resulted in: Kc cell number, rep 1 = 1.48e6; Kc cell number, rep 2 = 1.74e6; S2R+ cell number, rep 1 = 1.31e6; S2R+ cell number, rep 2 = 1.39e6; inactive.
Depletion of ImpE2 (Ecdysone-inducible gene E2) [DRSC08665] gave: Kc cell number, rep 1 = 1.32e6; Kc cell number, rep 2 = 1.39e6; S2R+ cell number, rep 1 = 1.11e6; S2R+ cell number, rep 2 = 1.10e6; inactive.
Against veli [DRSC16276] the deposit lists Kc cell number, rep 1 = 1.79e6; Kc cell number, rep 2 = 1.68e6; S2R+ cell number, rep 1 = 1.06e6; S2R+ cell number, rep 2 = 1.21e6; inactive.
Silencing of ltl (larval translucida) [DRSC10206] gave: Kc cell number, rep 1 = 1.42e6; Kc cell number, rep 2 = 1.36e6; S2R+ cell number, rep 1 = 1.09e6; S2R+ cell number, rep 2 = 1.20e6; inactive.
Against ltl (larval translucida) [DRSC10870], the values are Kc cell number, rep 1 = 1.38e6; Kc cell number, rep 2 = 1.35e6; S2R+ cell number, rep 1 = 1.14e6; S2R+ cell number, rep 2 = 1.21e6; inactive.
Depletion of Mvb12 (Multivesicular body subunit 12) [DRSC20027] gave: Kc cell number, rep 1 = 1.50e6; Kc cell number, rep 2 = 1.51e6; S2R+ cell number, rep 1 = 1.14e6; S2R+ cell number, rep 2 = 1.21e6; inactive.
CG34135 + Nasp [DRSC16397] gave Kc cell number, rep 1 = 1.28e6; Kc cell number, rep 2 = 1.35e6; S2R+ cell number, rep 1 = 1.10e6; S2R+ cell number, rep 2 = 1.26e6; inactive.
Against CG9391 [DRSC11858], the values are Kc cell number, rep 1 = 1.47e6; Kc cell number, rep 2 = 1.60e6; S2R+ cell number, rep 1 = 1.24e6; S2R+ cell number, rep 2 = 1.35e6; inactive.
Silencing of CG7550 [DRSC10875] came out at: Kc cell number, rep 1 = 1.39e6; Kc cell number, rep 2 = 1.26e6; S2R+ cell number, rep 1 = 1.32e6; S2R+ cell number, rep 2 = 1.30e6; inactive.
Depletion of CG11596 [DRSC18540] came out at: Kc cell number, rep 1 = 4.96e5; S2R+ cell number, rep 1 = 7.99e5; inactive.
Silencing of Vinc (Vinculin) [DRSC18728] resulted in: Kc cell number, rep 1 = 5.09e5; S2R+ cell number, rep 1 = 8.13e5; inactive.
Zip42C.1 (Zinc/iron regulated transporter-related protein 42C.1) [DRSC05003] scored Kc cell number, rep 1 = 1.73e6; Kc cell number, rep 2 = 1.82e6; S2R+ cell number, rep 1 = 1.35e6; S2R+ cell number, rep 2 = 1.54e6; inactive.
Tsp66E (Tetraspanin 66E) [DRSC09683] showed Kc cell number, rep 1 = 1.29e6; Kc cell number, rep 2 = 1.34e6; S2R+ cell number, rep 1 = 1.19e6; S2R+ cell number, rep 2 = 1.20e6; inactive.
Silencing of mas (masquerade) [DRSC08720] resulted in: Kc cell number, rep 1 = 1.36e6; Kc cell number, rep 2 = 1.45e6; S2R+ cell number, rep 1 = 1.24e6; S2R+ cell number, rep 2 = 1.20e6; inactive.
gzl (godzilla E3 ubiquitin protein ligase) [DRSC12517] gave Kc cell number, rep 1 = 1.88e6; Kc cell number, rep 2 = 1.92e6; S2R+ cell number, rep 1 = 1.38e6; S2R+ cell number, rep 2 = 1.44e6; inactive.
Mur11Da (Mucin related 11Da) [DRSC18960] showed Kc cell number, rep 1 = 1.47e6; Kc cell number, rep 2 = 1.68e6; S2R+ cell number, rep 1 = 1.12e6; S2R+ cell number, rep 2 = 1.19e6; inactive.
Depletion of CG33630 [DRSC14546] gave: Kc cell number, rep 1 = 1.53e6; Kc cell number, rep 2 = 1.47e6; S2R+ cell number, rep 1 = 1.20e6; S2R+ cell number, rep 2 = 1.30e6; inactive.
After knock-down of Nsun2 (NOP2-Sun domain family, member 2) [DRSC18662], the screen gave Kc cell number, rep 1 = 6.08e5; S2R+ cell number, rep 1 = 8.81e5; inactive.
For CG8500 [DRSC16434] the deposit lists Kc cell number, rep 1 = 1.63e6; Kc cell number, rep 2 = 1.70e6; S2R+ cell number, rep 1 = 1.17e6; S2R+ cell number, rep 2 = 1.22e6; inactive.

In a second layout: entries from further up
Gene	amplicon	Kc cell number, rep 1	Kc cell number, rep 2	S2R+ cell number, rep 1	S2R+ cell number, rep 2	Outcome
CG9391	DRSC11858	1.47e6	1.60e6	1.24e6	1.35e6	inactive
CG7550	DRSC10875	1.39e6	1.26e6	1.32e6	1.30e6	inactive
CG11596	DRSC18540	4.96e5		7.99e5		inactive
